Results as given in publication PMC7819943, “Rice protein-binding microarrays: a tool to detect cis-acting elements near promoter regions in rice”.
This is one part of the list.

The sequences below were run against T1, OsSMF1 (Oryza sativa, UniProt Q6ZLB0 1-436) (assay: protein-binding microarray (RPBM); PBS, 2% BSA, 51.3 ng/ul salmon testes DNA, 50 uM zinc acetate, 200 nM TF, 25 C, 1 h; high values mean tight binding). Settings: protein: recombinant; tags: N-terminal polyhistidine and DsRed monomer fusion (pET32a); chain copies: 2; label: CyDye5-dUTP incorporated in the synthesized complementary strand; 3' TTTTT single-stranded linker to array surface; dsDNA, one strand shown.
T1 sequence: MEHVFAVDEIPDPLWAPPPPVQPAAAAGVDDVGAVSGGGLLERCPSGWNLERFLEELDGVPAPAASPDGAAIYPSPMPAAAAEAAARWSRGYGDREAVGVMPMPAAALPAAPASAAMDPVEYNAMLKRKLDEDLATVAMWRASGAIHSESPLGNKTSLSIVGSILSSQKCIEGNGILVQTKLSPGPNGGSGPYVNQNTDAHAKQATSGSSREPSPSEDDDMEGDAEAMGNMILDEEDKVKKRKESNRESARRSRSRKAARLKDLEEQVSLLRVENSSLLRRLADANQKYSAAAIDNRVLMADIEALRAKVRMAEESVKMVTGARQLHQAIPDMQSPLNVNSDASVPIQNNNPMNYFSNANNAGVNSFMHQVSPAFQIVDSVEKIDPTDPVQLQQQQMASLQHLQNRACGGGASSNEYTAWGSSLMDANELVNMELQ
Outline: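 An Axon 4000B scanner gave the binding signal as per-feature fluorescence intensity in arbitrary units. This followed washing of a custom Agilent array that had been incubated for 1 h at 25 °C with 200 nM protein in PBS, 2% BSA, salmon testes DNA and 50 µM zinc acetate. The proteins were transcription factors fused at the N-terminus to polyhistidine and DsRed, expressed in E. coli BL21-CodonPlus and purified on Ni–NTA.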

Sequence | binding signal
GCACCGGATTGGCTCCCTCTCCCGCATCACGCTACTGCCACGGAGTCACCTAGTGCAG | 3160 fluorescence intensity (a.u.)
GTGGAAAACGCGCGTGCACCTCGAGGCAAACGAGCTCACCCGGAGTCACCTAGTGCAG | 15400 fluorescence intensity (a.u.)
TTATTTTGTTATGAGTTGTTTTATCACTCATAGTACTTTACGGAGTCACCTAGTGCAG | 3590 fluorescence intensity (a.u.)
ATGGCTTGAGTCATGCTTAGTTTGGATAGCGGTCTAGTCTCGGAGTCACCTAGTGCAG | 3310 fluorescence intensity (a.u.)
CAGTGGCGTGTTGATTCTGACAAGATTTATTGTCCTCCAACGGAGTCACCTAGTGCAG | 4200 fluorescence intensity (a.u.)
GCAATTTCATGGATTCTTTGGCCTGCCAGATTTCTTGTCTCGGAGTCACCTAGTGCAG | 27400 fluorescence intensity (a.u.)
TGCCGTGGTCCAGAACTTAGCGTGTTGGGGTTCTCTTCCTCGGAGTCACCTAGTGCAG | 3650 fluorescence intensity (a.u.)
TTTTACTGCACGCATCTTAGTTACGATAAGTACTATTTTGCGGAGTCACCTAGTGCAG | 25000 fluorescence intensity (a.u.)
TGGTGCTGCTGATACTGACAATGCTGCTGCGAAACCTGCACGGAGTCACCTAGTGCAG | 3890 fluorescence intensity (a.u.)
GAGTACAAGACTGCATTTCAGTGTTACTGTAGTGCAAACACGGAGTCACCTAGTGCAG | 14900 fluorescence intensity (a.u.)
CGTTTTCTGGCGCTTCCCATACAAACTGACGCGCTGTCTCCGGAGTCACCTAGTGCAG | 3740 fluorescence intensity (a.u.)
ACATAGGAAACTTATCTTATCTATCTAAACAGCCCAACAACGGAGTCACCTAGTGCAG | 3410 fluorescence intensity (a.u.)
CCCTTCCACACTCGCCAACACGTAAGCACGTACGACGCGCCGGAGTCACCTAGTGCAG | 10800 fluorescence intensity (a.u.)
TTTGAGCGCCGCTCGACTATGTCATGAAGCAACGTGGCACCGGAGTCACCTAGTGCAG | 7750 fluorescence intensity (a.u.)
AATACGTATGCATTAACTTATAACGTAATCACCCGACTGACGGAGTCACCTAGTGCAG | 3350 fluorescence intensity (a.u.)
ATCGCGTTTGAACTTTGACGTGTTAGTTTTATGTTCCCATCGGAGTCACCTAGTGCAG | 6380 fluorescence intensity (a.u.)
CGCCCATTCTACACCGTCTCCATCCATCTCATCTCGTCGTCGGAGTCACCTAGTGCAG | 3670 fluorescence intensity (a.u.)
TGAGCGACTGTGCGGCGAGCACGCTGATGTGGCCGTCCTGCGGAGTCACCTAGTGCAG | 3490 fluorescence intensity (a.u.)
GGTCCACTCCGCCGCCGGCGGAGGCGGCGGCGGCGAAGGCCGGAGTCACCTAGTGCAG | 32000 fluorescence intensity (a.u.)
TCTCCACTTCAGAGACGGTCCCACCTGTCATCCGCTCATACGGAGTCACCTAGTGCAG | 4680 fluorescence intensity (a.u.)
TTAAGATACATTTCAATTATTAATGAATGACGCATATGAACGGAGTCACCTAGTGCAG | 3710 fluorescence intensity (a.u.)

3 records picked at random from the list so far, as already listed:
Sequence | binding signal
TGGTGCTGCTGATACTGACAATGCTGCTGCGAAACCTGCACGGAGTCACCTAGTGCAG | 3890 fluorescence intensity (a.u.)
TTTGAGCGCCGCTCGACTATGTCATGAAGCAACGTGGCACCGGAGTCACCTAGTGCAG | 7750 fluorescence intensity (a.u.)
ACATAGGAAACTTATCTTATCTATCTAAACAGCCCAACAACGGAGTCACCTAGTGCAG | 3410 fluorescence intensity (a.u.)

(cont.)

Sequence | binding signal
GGCGTCGTCCCCGTCCACAGCCACGCCGCCGAGCCGTGCTCGGAGTCACCTAGTGCAG | 32600 fluorescence intensity (a.u.)
CCCCACTTCTTGGGTCCTTCCCCATCGTCTTCCACGTCGACGGAGTCACCTAGTGCAG | 4970 fluorescence intensity (a.u.)
CAGCCGCGCCGCTCGCTGCCTCCGTTTACAGCCGTGACGCCGGAGTCACCTAGTGCAG | 5170 fluorescence intensity (a.u.)
CCTCCCACGCCGCCACCCGCGCCCTGATGTCCGCGTCCGTCGGAGTCACCTAGTGCAG | 4470 fluorescence intensity (a.u.)
TACTAATCTAGTCAAAAGCCAGCATGATGCTGTCAAATTTCGGAGTCACCTAGTGCAG | 3410 fluorescence intensity (a.u.)
ACCCGGAGTATAATCAAGTGAATTTTCATCCACGTGCACACGGAGTCACCTAGTGCAG | 4910 fluorescence intensity (a.u.)
TCGGTCGCACCTACAACGAGGTGGCCAGGTCACCTACTGCCGGAGTCACCTAGTGCAG | 3330 fluorescence intensity (a.u.)
CGATGATTGTGCTAGTATACATGTGTTGACGATGTATTGTCGGAGTCACCTAGTGCAG | 4020 fluorescence intensity (a.u.)
CACGCCAAGCCTTGAGTGTCGTGGCCTTGAGCTGGGGATGCGGAGTCACCTAGTGCAG | 20800 fluorescence intensity (a.u.)
TATAAACGGGGTAGCGCATGAGACCTACAAGTGGATGGATCGGAGTCACCTAGTGCAG | 3220 fluorescence intensity (a.u.)
AGTACCATCGCCTGTTCGTAGAATTCTTTGCCAGCACAAGCGGAGTCACCTAGTGCAG | 3270 fluorescence intensity (a.u.)
AAAATTATGTTGTCATTTTAATATATTTGAATAATACATTCGGAGTCACCTAGTGCAG | 3560 fluorescence intensity (a.u.)
CACGCCGCCGCCCGTCGCGAGCTCCACGTCGAGCAGCAGCCGGAGTCACCTAGTGCAG | 4920 fluorescence intensity (a.u.)
CATAGACACATGAGGATCCACGTGTTATAAATACAGTGTGCGGAGTCACCTAGTGCAG | 10300 fluorescence intensity (a.u.)
TATTGGAGGTAAGCCATACATTCTCATCCTGCTATCTAACCGGAGTCACCTAGTGCAG | 3330 fluorescence intensity (a.u.)
GCGGGTGCCATCGTGGGCTGATCTGGTGGCAGCAAGGGCTCGGAGTCACCTAGTGCAG | 3310 fluorescence intensity (a.u.)
TCTGCAGCACCCGACGACGCGCATCCCTCTCACGACCACGCGGAGTCACCTAGTGCAG | 4090 fluorescence intensity (a.u.)
TATATTTCATTAATATAAATAAAATTAAAATGTTACTTAACGGAGTCACCTAGTGCAG | 25600 fluorescence intensity (a.u.)
ACAAAGCTTAAGCTCAGTGTCAGTGTCACAGTGTCAGACACGGAGTCACCTAGTGCAG | 3520 fluorescence intensity (a.u.)
ATTCGTAGTAATAAGATGTGCCACATCCGCTACGTTGTTTCGGAGTCACCTAGTGCAG | 3940 fluorescence intensity (a.u.)
CTGACGAATATACAGGAGGGAACCGAATGGCGCGCAATTGCGGAGTCACCTAGTGCAG | 21700 fluorescence intensity (a.u.)
